The series can be described thus: Acylation specificity of 4 lysines (K62, K69, K91, K107) in native GDF15, API digest LC/MS.

For the substance “Native GDF15: mature domain of native GDF15, SEQ ID NO: 248; control”, the Acylation percentage is, setting by setting: (lysine position 62K on GDF15) 0%; (lysine position 69K on GDF15) about 14%; (lysine position 91K on GDF15) 100%; (lysine position 107K on GDF15) about 42%.

The record behind these values is patent US11453711B2, “Fusion proteins of GLP-1 and GDF15 and conjugates thereof” (BEIJING QL BIOPHARMACEUTICAL CO., LTD., priority 2019, dated 2022).
